# Measured values: paper PMC11446459
# Results are given in words; binding and its absence hold for the method and conditions named. Binding seen in cells or lysates may run through a third protein. A result given as binding can be weak or reduced; the word gives no strength. Where a sequence is shown, tags or fusion partners need not be part of it.
# How the values were obtained:
# [1] = molecular target: T1, δ subunit of F1, split-YFP fusion (Arabidopsis) (UniProt Q96252); experiment: split reporter; BiFC with split YFP in co-infiltrated tobacco leaves, YFP fluorescence observed 48 h after infiltration
# T1 sequence: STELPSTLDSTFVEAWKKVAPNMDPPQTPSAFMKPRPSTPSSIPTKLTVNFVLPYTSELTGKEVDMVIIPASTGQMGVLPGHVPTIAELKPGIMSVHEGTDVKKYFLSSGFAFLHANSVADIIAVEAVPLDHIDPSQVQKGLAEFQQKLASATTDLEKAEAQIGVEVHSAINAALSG
# [2] = molecular target: T2, B9, split-YFP fusion (Arabidopsis) (UniProt Q945M1); experiment: as above
# T2 sequence: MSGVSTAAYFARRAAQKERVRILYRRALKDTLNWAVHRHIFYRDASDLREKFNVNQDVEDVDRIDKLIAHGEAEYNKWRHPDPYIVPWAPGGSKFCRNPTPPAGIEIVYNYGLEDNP
# [3] = molecular target: T3, ε subunit of F1, split-YFP fusion (Arabidopsis) (UniProt Q96253); experiment: as above
# T3 sequence: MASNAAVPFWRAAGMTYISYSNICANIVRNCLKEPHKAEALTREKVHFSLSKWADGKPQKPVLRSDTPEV
# [4] = molecular target: T4, γ subunit of F1, split-YFP fusion (Arabidopsis) (UniProt Q96250); experiment: as above
# T4 sequence: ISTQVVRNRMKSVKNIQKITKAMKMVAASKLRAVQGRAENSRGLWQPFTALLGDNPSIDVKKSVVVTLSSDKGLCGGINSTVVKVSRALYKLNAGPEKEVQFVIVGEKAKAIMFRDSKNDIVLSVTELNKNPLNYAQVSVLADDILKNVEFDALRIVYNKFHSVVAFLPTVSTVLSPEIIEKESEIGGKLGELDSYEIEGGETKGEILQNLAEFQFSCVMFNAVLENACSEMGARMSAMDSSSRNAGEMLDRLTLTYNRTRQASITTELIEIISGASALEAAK
# [5] = molecular target: T5, B9, GFP-tagged (Arabidopsis) (UniProt Q945M1); experiment: co-IP; Flag- and GFP-tagged proteins co-expressed in tobacco leaves; lysate incubated with GFP-Nanoab-Magnetic Beads 2 h at 4°C, six washes; blots with anti-GFP and anti-Flag
# T5 sequence: T2 sequence
# [6] = molecular target: T6, ε subunit of F1, GFP-tagged (Arabidopsis) (UniProt Q96253); experiment: as above
# T6 sequence: T3 sequence
# [7] = molecular target: T7, γ subunit of F1, GFP-tagged (Arabidopsis) (UniProt Q96250); experiment: as above
# T7 sequence: T4 sequence
# [8] = molecular target: T8, δ subunit of F1, cLUC fusion (Arabidopsis) (UniProt Q96252); experiment: split reporter; luciferase complementation imaging (LCI), nLUC and cLUC fusions in co-infiltrated tobacco leaves, 48 h, 1 mM D-luciferin
# T8 sequence: T1 sequence
substance,measurement,setting,value
C1-FDX-cYFP (Arabidopsis),binding,[1],binds
same,binding,[2],binds
same,binding,[3],binds
same,binding,[4],binds
"C1-FDX, Flag-tagged (Arabidopsis)",binding,[5],binds
same,binding,[6],binds
same,binding,[7],binds
"C1-FDX, nLUC fusion (Arabidopsis)",binding,[8],binds
